These are yes or no findings as the source states them, for the method shown. A result given as binding can be weak or reduced; the word gives no strength. Where a sequence is shown, tags or fusion partners need not be part of it. For part of these data: In cells and extracts the contact can be indirect.

The target of assay [1] is T1, RME-8 DNAJ domain (1322-1388), Duplex LexA two-hybrid fusion (C. elegans) (UniProt G5ED36).
T1 sequence: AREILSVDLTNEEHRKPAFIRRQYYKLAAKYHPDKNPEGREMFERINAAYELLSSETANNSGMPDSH
The assay can be described thus: two-hybrid; Duplex LexA 2-micron system; RME-8 C-terminus (no DNAJ) fragments against the DNAJ domain (1322-1388); spotted on SC-HIS-URA-TRP growth or SC GAL-HIS-TRP-LEU assay media.

Assay [2] concerns the target DNAJ-GST (RME-8 DNAJ domain), wild-type (C. elegans). The assay can be described thus: pull-down; HA-tagged RME-8 C-terminus fragments from an in vitro TnT system incubated with DNAJ-GST Sepharose beads; bound fraction on SDS-PAGE probed with an HA-antibody; only the target purified.

Take “RME-8 C-terminus (no DNAJ) IWN4 mutant, Duplex LexA two-hybrid fusion (C. elegans) (domain or fragment)”: the binding result in assay [1] is on record as “binds”. Same read-out and setting: the entry for “RME-8 C-terminus (no DNAJ) D1657K, Duplex LexA two-hybrid fusion (C. elegans) (domain or fragment)” is “binds”.

B1: HA-tagged RME-8 C-terminus (no DNAJ), wild-type, RME-8(1388-2279) (domain or fragment, UniProt G5ED36 1388-2279)
chain: HRIVLCLQAQSIIYSRYSQELSEYKYAGYSQLIKTIDLEAKDEALFIKGGGDLLSAAIELANYTLISSALNAEQLRRDNGLEALVTAFDRCVPMVTMSSLPDDMAVRVCIHVCDCFATAATFEACRQRLMEMPSIFGALTRLLQFSNLPRLSTAAAQCIRAMAVDTLLQFQLFQTGVLWQLVPHLFHFDYTLDEGGVQHSEDSNKQSLANSLARSSCEALAALAGFRENTPDNDGVQASLRALLTPYICRCMKLETNDMVLKTLNSNMENPYMIWDNGTRAEVLEFVERHRTSNEPTSELYGAEFELSVHKNELIVGDIFIRIYNEQPTFALHEPKKVAIDLLDYIKKHSAELTGAPKPKAISDDLIEIDWGNGSQANGNSLDTETKVLMTMTALANLVSANPGALFANKKGVEILLIGNFPLLITYLRCRKHPKLQIAALQVILLAAANKECVTDLATCNVTTTLFTLLRDQPKMIARVLDVLIALSSNGQIGKEMLEHGGLMYILSILCLTNSDQGQRLQAAELLAKLQADKLTGPRWTRFIIKFLPEIFADSLRDSPNTALQMFDSSSENPELIWNEVTRQKVKGIIDTEVGKLYEQHIKDPTVKWNTTSLADKSCAYGDSINGELVVGGVFVRLYVENPGFNVRHPKLFSTELIEKVLELMSRPTPELDLVTKAFVELVRHHPNTADQLPSQGYLPQFCTAMCLQNTSASRSAILILQELSENQFCCDALSQLPCIDGIMKSMKNQPSLMRESAHALKCLMKRNTGELAQQMLSCGMVPYLLQVLDSSMNGVSNGAAARAEIVDALKSAILDLKVGQKIAEILDKSPVWAQFKDQRHDLFLPEARTQAITGGPTGVAGYLTEGMFNPPPMSNQPPPMHQTSGDFQPPL
As for B1, in assay [2], the binding entry is “binds”.

For the origin of these results see paper PMC9642905.
